# Experimental data: the supplement of paper PMC9744312
# Structures can show the parent of a compound that is named as a salt. This is one part of the list. Single values of this set are uncertain.
# Test system: Peyronie's disease tunica albuginea primary fibroblasts
# Assay: inhibition of TGF-beta1-induced alpha-SMA expression (myofibroblast transformation), relative to TGF-beta1-only and untreated controls; higher = stronger inhibition of myofibroblast transformation
# Settings: 10 µM; TGF-beta1 10 ng/mL; 72 h
row,SMILES,inhibition of TGF-beta1-induced alpha-SMA expression [%]
1,Cn1ncc(Cl)c1-c1cc(C(=O)N[C@H](CN)Cc2cccc(F)c2)sc1Cl,> 100
2,NC12CC3CC(CC(C3)C1)C2 [Amantadine],10.7
3,NC12CC3CC(CC(C3)C1)C2 [Amantadine HCl],14.9
4,CO[C@H]1O[C@@H]2O[C@@]3(C)CC[C@H]4[C@H](C)CC[C@@H]([C@H]1C)[C@@]24OO3 [Artemether],-8.85
5,Nc1ccc(S(=O)(=O)Nc2ccccn2)cc1 [Sulfapyridine],4.58
6,Nc1ccn([C@@H]2O[C@H](CO)[C@@H](O)[C@@H]2O)c(=O)n1 [Cytarabine hydrochloride],8.42
7,Nc1ccn([C@@H]2O[C@H](CO)[C@@H](O)[C@@H]2O)c(=O)n1 [Cytarabine],2.04
8,O=c1[nH]c(=O)c2ccccc2o1 [Carsalam],-2.76
9,Cc1[nH]c2ccccc2c1CCNCc1ccc(/C=C/C(=O)NO)cc1 [Panobinostat (LBH589)],95.9
10,COc1ccnc(C[S+]([O-])c2nc3cc(OC(F)F)ccc3[nH]2)c1OC (stereo not given) [Pantoprazole],24
11,COc1ccnc(C[S+]([O-])c2nc3cc(OC(F)F)ccc3[nH]2)c1OC (stereo not given) [Pantoprazole sodium],10.3
12,CCOc1ccccc1OC(c1ccccc1)C1CNCCO1 (stereo not given) [Reboxetine mesylate],15.5
13,O=c1[nH]cnc2c1ncn2[C@@H]1O[C@H](CO)[C@@H](O)[C@H]1O [Inosine],-30.6
14,COc1cc([C@@H]2c3cc4c(cc3[C@@H](O[C@@H]3O[C@@H]5CO[C@@H](c6cccs6)O[C@H]5[C@H](O)[C@H]3O)[C@H]3COC(=O)[C@H]23)OCO4)cc(OC)c1O [Teniposide],44
15,CCOc1ccc(C[C@H]2NC(=O)CCSSC[C@@H](C(=O)N3CCC[C@H]3C(=O)N[C@@H](CCCN)C(=O)NCC(N)=O)NC(=O)[C@H](CC(N)=O)NC(=O)[C@H]([C@@H](C)O)NC(=O)[C@H]([C@@H](C)CC)NC2=O)cc1 [Atosiban Acetate],1.58
16,O=c1ccc2ccccc2o1 [Coumarin],-11.3
17,CN(C)CCCN1c2ccccc2Sc2ccc(Cl)cc21 [Chlorpromazine HCl],46
18,C[C@@H](O)[C@H]1C(=O)N2C(C(=O)[O-])=C(SC3Cn4cnc[n+]4C3)[C@H](C)[C@H]12 (stereo not given in full) [Biapenem],26.8
19,Cc1nc(-c2ccc(OCC(C)C)c(C#N)c2)sc1C(=O)O [Febuxostat],50.8
20,CC(=O)[C@H]1CC[C@H]2[C@@H]3CC=C4C[C@@H](O)CC[C@]4(C)[C@H]3CC[C@]12C [Pregnenolone],17.4

# Some values from above.
# Under inhibition of TGF-beta1-induced alpha-SMA expression [%], Nc1ccc(S(=O)(=O)Nc2ccccn2)cc1 [Sulfapyridine] has the entry 4.58
# Under inhibition of TGF-beta1-induced alpha-SMA expression [%], Cc1[nH]c2ccccc2c1CCNCc1ccc(/C=C/C(=O)NO)cc1 [Panobinostat (LBH589)] has the entry 95.9
